Assay results taken from patent US20160159869A1 (NORTHWESTERN UNIVERSITY, published 2016).
No constants are given. Whether binding was seen depends on the method and setting. Some entries that bind do so weakly or less than the wild type.

Columns and labels:
[1] = biological target: T1, Recombinant human BMP-2 (Medtronic Sofamor Danek) (human) (UniProt P12643); experiment: capture of BMP-2 by PA gel from medium, sandwich ELISA
T1 sequence (looked up): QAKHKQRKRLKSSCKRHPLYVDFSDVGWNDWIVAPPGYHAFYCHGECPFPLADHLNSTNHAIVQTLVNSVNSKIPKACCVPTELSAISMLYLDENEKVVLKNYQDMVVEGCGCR

[2] = biological target: T1, Recombinant human BMP-2 (Medtronic Sofamor Danek) (human); experiment: Capture of BMP-2 from medium (25 ng BMP-2 in 1 mL) by a 20 uL PA gel at 37 C. BMP-2 left in the medium was quantified by sandwich ELISA.
[3] = biological target: T1, Recombinant human BMP-2 (Medtronic Sofamor Danek) (human); experiment: capture of BMP-2 by PA gel from medium, 16 h, sandwich ELISA

binding [1]: binds
binding [2]: binds
binding [3]: binds
B1: diluent PA, C16-V3A3E3-COOH (peptide)
peptide: VVVAAAEEE
modifications: C16 alkyl tail covalently attached at the N-terminus; C-terminal COOH
